Source: the supplement of paper PMC10849652
This is one part of the list.

Protein sequences, listed by entry. Tags and fused reporters are not part of them. Lines headed by an entry give the natural chain unless they say otherwise; changes in a name come on top.
UniProt Q9Y5T5, whole entry, looked up: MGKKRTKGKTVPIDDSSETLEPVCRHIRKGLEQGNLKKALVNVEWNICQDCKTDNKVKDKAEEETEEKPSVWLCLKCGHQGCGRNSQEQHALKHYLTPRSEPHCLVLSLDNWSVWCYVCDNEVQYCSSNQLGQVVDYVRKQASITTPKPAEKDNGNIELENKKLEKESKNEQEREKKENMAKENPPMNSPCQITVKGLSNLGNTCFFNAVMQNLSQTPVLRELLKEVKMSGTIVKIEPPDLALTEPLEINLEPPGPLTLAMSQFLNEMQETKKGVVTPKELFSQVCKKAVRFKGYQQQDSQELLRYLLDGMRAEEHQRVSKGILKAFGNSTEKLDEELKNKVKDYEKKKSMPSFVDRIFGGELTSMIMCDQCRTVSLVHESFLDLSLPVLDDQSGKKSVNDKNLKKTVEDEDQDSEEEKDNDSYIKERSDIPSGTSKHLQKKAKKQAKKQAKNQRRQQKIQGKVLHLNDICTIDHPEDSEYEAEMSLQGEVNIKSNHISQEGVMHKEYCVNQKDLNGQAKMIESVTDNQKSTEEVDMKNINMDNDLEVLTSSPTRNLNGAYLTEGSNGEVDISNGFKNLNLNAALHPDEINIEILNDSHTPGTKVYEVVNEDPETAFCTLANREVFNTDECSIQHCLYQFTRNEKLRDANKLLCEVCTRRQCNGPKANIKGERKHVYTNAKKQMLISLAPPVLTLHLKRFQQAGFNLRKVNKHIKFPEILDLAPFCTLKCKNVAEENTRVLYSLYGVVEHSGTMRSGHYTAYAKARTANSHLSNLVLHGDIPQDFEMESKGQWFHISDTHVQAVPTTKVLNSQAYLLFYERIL
UniProt Q9HAU5: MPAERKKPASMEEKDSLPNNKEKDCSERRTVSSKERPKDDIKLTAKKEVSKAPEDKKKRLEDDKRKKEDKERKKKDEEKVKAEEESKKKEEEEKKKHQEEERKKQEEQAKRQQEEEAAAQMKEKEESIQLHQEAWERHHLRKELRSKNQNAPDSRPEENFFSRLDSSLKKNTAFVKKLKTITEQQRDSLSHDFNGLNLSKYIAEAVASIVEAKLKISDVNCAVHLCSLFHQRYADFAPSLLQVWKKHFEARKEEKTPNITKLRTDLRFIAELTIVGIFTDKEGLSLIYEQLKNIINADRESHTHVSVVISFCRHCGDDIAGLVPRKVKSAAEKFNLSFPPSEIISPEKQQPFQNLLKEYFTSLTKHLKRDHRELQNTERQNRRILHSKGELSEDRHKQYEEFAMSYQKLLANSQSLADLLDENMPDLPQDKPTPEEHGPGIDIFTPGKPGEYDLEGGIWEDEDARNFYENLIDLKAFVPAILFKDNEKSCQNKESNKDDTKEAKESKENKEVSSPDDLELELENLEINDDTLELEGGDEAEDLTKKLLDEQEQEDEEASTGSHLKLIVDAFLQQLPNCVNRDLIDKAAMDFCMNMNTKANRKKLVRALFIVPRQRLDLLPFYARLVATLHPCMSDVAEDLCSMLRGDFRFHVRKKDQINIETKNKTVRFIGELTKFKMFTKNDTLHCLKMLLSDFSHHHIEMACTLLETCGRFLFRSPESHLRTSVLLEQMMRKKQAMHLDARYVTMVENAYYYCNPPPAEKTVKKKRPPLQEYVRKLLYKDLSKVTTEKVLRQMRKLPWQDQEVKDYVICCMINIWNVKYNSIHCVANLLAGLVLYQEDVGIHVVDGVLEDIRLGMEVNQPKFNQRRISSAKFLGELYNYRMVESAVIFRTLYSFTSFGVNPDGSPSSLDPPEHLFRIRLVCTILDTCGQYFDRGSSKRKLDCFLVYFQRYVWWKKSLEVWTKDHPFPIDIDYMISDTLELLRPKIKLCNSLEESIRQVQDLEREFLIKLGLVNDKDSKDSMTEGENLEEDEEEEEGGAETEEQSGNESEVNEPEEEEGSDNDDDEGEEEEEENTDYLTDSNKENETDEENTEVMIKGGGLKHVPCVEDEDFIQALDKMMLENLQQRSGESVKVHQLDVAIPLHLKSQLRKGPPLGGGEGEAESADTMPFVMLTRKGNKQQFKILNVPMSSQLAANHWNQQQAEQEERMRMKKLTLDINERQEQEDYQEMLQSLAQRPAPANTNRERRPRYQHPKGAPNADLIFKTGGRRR
UniProt P31930: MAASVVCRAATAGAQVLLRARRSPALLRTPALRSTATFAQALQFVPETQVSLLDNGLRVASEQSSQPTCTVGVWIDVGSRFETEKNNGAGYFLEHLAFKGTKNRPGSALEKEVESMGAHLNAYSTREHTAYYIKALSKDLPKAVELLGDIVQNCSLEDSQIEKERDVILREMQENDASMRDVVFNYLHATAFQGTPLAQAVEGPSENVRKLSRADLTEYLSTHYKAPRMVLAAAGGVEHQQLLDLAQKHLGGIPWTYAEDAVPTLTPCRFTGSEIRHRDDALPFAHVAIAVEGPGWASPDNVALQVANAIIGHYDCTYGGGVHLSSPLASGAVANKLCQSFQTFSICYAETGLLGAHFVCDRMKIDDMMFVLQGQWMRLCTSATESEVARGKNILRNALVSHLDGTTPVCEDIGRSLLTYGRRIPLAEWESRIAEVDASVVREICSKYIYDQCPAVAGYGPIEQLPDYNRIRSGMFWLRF
UniProt Q9BRT2: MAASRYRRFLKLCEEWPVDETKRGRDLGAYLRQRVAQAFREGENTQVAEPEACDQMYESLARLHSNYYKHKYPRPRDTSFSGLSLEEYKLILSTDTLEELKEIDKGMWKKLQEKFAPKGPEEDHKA
UniProt Q9BV40: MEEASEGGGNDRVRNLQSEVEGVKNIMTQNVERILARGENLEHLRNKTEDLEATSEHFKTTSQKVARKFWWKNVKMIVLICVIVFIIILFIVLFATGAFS
UniProt P47985: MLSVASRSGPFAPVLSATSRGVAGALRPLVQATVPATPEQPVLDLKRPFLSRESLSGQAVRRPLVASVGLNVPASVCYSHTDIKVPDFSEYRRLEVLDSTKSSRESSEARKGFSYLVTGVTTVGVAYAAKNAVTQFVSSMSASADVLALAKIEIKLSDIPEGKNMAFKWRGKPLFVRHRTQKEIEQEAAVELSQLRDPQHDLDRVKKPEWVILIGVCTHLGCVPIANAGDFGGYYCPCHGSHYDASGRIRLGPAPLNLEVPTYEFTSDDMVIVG
UniProt Q9P0L0: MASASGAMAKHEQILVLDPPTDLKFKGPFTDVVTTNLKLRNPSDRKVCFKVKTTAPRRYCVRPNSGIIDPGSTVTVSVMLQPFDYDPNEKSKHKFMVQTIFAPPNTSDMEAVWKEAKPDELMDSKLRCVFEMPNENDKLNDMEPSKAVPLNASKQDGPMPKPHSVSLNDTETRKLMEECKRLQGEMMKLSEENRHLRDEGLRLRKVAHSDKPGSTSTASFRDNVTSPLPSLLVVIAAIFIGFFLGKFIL
UniProt Q9NUQ7: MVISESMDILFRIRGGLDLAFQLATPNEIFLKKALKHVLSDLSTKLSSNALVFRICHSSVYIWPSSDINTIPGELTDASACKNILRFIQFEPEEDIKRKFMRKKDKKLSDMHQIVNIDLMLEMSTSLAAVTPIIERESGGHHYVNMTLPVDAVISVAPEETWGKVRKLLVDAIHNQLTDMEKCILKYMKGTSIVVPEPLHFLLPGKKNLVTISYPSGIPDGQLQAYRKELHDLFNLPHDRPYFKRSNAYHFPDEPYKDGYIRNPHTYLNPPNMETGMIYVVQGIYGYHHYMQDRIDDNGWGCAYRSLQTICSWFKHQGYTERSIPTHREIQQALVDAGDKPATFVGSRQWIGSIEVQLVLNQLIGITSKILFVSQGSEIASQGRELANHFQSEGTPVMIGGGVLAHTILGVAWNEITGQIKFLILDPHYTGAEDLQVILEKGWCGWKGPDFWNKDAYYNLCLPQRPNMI
UniProt Q9Y6I4: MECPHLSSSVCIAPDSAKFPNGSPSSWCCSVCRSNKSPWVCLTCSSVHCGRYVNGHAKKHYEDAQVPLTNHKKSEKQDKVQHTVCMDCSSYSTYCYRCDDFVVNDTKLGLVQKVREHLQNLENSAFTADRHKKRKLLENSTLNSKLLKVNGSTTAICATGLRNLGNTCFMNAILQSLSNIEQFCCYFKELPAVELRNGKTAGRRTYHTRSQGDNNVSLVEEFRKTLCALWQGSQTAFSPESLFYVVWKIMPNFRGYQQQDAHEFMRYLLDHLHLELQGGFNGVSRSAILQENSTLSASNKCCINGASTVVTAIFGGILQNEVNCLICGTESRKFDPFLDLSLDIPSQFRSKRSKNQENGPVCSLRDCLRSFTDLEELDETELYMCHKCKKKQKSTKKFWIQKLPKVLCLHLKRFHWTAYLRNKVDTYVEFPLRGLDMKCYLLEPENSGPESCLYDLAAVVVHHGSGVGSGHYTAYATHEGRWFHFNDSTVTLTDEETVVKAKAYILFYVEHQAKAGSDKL
UniProt O60763: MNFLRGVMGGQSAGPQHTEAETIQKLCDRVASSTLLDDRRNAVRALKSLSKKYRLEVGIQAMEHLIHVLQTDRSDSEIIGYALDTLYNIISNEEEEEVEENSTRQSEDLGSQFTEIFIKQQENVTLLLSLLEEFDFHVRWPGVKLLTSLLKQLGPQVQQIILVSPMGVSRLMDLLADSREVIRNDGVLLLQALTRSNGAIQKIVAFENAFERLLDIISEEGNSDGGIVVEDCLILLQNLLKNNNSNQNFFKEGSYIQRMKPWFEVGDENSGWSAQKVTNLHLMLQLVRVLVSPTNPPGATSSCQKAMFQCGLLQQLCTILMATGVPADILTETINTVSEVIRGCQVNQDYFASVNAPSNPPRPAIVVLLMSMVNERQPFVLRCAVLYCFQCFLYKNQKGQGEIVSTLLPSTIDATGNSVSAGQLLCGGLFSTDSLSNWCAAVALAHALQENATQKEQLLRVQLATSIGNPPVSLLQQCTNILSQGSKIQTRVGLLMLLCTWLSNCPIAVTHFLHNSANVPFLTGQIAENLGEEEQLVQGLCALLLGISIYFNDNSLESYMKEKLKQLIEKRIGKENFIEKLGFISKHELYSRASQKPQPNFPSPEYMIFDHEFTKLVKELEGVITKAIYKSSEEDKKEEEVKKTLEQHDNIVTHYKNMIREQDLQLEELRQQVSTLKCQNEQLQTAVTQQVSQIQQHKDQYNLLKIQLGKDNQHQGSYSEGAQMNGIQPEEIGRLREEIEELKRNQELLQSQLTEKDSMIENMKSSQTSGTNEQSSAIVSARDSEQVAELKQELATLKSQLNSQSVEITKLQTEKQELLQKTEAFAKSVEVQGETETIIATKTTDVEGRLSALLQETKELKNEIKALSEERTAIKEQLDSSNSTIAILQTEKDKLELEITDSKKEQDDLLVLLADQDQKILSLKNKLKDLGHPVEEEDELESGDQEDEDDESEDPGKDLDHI
UniProt Q9Y5J1: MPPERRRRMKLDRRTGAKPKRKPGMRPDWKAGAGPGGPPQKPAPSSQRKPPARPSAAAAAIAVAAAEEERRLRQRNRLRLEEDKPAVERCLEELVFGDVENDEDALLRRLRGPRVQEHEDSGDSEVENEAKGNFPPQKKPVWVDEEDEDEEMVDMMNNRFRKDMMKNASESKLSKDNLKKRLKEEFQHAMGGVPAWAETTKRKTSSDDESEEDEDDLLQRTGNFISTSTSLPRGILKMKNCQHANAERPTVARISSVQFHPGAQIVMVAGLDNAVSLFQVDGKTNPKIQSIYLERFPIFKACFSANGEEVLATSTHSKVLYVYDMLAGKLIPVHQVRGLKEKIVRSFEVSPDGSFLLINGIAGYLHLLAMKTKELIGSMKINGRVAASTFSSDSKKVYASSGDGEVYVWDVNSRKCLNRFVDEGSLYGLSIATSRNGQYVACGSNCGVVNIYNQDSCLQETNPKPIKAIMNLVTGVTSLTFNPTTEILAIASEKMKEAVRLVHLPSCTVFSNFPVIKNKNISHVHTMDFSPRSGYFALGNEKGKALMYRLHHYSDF
UniProt O75379: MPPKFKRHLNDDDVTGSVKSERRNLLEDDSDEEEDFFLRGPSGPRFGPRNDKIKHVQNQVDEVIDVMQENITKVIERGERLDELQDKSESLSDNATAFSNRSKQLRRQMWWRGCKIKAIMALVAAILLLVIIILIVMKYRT
UniProt Q8IX04: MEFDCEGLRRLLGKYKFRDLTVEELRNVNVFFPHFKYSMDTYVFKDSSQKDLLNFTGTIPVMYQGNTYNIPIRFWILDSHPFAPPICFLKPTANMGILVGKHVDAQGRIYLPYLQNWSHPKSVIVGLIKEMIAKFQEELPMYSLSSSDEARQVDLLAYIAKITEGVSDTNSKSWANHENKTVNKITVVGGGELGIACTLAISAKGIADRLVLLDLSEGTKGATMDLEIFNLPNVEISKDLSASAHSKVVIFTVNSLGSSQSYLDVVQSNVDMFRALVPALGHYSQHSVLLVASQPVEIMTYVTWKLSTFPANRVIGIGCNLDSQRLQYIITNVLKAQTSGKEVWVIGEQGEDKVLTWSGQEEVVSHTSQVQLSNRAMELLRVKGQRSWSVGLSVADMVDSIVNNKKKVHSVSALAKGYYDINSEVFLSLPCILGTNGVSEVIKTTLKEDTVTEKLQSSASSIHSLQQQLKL

Key:
Assay in all cases: log2 fold change, soluble protein after heating vs DMSO (PISA); higher = thermal stabilisation; K562 lysate, 10 uM; active = over 0.2 and 3.5 SD of the protein, either way, in both replicates (recomputed)
lapatinib = compound: CS(=O)(=O)CCNCc1ccc(-c2ccc3ncnc(Nc4ccc(OCc5cccc(F)c5)c(Cl)c4)c3c2)o1 [lapatinib]
In short: (§1)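 K562 pellets were dounce-homogenised in PBS pH 7.4 containing 1 mM MgCl2, and the crude extract, at 1 mg/mL protein, was exposed to 10 μM compound for 30 min. Aliquots were heated for 3 min across 48°C-58°C, pooled, brought to 0.5% NP-40 at 4°C and spun at 21,000xg for 90 min, with the supernatant taken as soluble protein. TMTpro 16plex LC-MS/MS with equalised channel sums quantified that protein. Values are log-two fold changes in thermal stability relative to solvent controls, taken from duplicates.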

pictilisib = compound: CS(=O)(=O)N1CCN(Cc2cc3nc(-c4cccc5[nH]ncc45)nc(N4CCOCC4)c3s2)CC1 [pictilisib]
In short: as §1

crizotinib = compound: C[C@@H](Oc1cc(-c2cnn(C3CCNCC3)c2)cnc1N)c1c(Cl)ccc(F)c1Cl [crizotinib]
In short: as §1

[1] = compound: C[C@H](C1=CC=C(C=C1)C(=O)NC2=C3C=CNC3=NC=C2)N
In short: as §1

duvelisib = compound: C[C@H](Nc1ncnc2nc[nH]c12)c1cc2cccc(Cl)c2c(=O)n1-c1ccccc1 [duvelisib]
In short: as §1

gandotinib = compound: Cc1cc(Nc2cc(CN3CCOCC3)c3nc(C)c(Cc4ccc(Cl)cc4F)n3n2)n[nH]1 [gandotinib]
In short: as §1

tozasertib = compound: Cc1cc(Nc2cc(N3CCN(C)CC3)nc(Sc3ccc(NC(=O)C4CC4)cc3)n2)n[nH]1 [tozasertib]
In short: as §1

doramapimod = compound: Cc1ccc(-n2nc(C(C)(C)C)cc2NC(=O)Nc2ccc(OCCN3CCOCC3)c3ccccc23)cc1 [doramapimod]
In short: as §1

bafetinib = compound: Cc1ccc(NC(=O)c2ccc(CN3CC[C@H](N(C)C)C3)c(C(F)(F)F)c2)cc1Nc1nccc(-c2cncnc2)n1 [bafetinib]
In short: as §1

[2] = compound: Cc1cccc(CC(=O)N2CCc3c2ccc(-c2cn(C)c4ncnc(N)c24)c3F)n1
In short: as §1

Target	log2 fold change (lapatinib)	log2 fold change (pictilisib)	log2 fold change (crizotinib)	log2 fold change [1]	log2 fold change (duvelisib)	log2 fold change (gandotinib)	log2 fold change (tozasertib)	log2 fold change (doramapimod)	log2 fold change (bafetinib)	log2 fold change [2]
USP16 (UniProt Q9Y5T5)	inactive: 0.003	inactive: -0.049	inactive: -0.018	inactive: 0.003	inactive: 0.049	inactive: -0.039	inactive: 0.006	inactive: -0.017	inactive: -0.037	inactive: 0.035
USP39 (UniProt Q53GS9)	inactive: -0.028	inactive: 0.031	inactive: -0.005	inactive: 0	inactive: 0.02	inactive: -0.102	inactive: 0.021	inactive: -0.002	inactive: -0.034	inactive: 0.033
UPF2 (UniProt Q9HAU5)	inactive: -0.005	inactive: -0.011	inactive: -0.016	inactive: -0.026	inactive: -0.025	inactive: -0.052	inactive: -0.009	inactive: 0.052	inactive: -0.031	inactive: 0.023
UQCRC1 (UniProt P31930)	inactive: -0.036	inactive: 0.01	inactive: 0.01	inactive: -0.017	inactive: -0.011	inactive: 0.01	inactive: 0.01	inactive: 0.02	inactive: 0.059	inactive: 0.017
UQCC2 (UniProt Q9BRT2)	inactive: 0.007	inactive: 0.009	inactive: 0.036	inactive: 0.158	inactive: 0.026	inactive: -0.091	inactive: -0.015	inactive: 0.014	inactive: 0.001	inactive: -0.093
UTP14A (UniProt Q9BVJ6)	inactive: 0.004	inactive: 0.053	inactive: -0.026	inactive: -0.015	inactive: 0.023	inactive: 0.029	inactive: -0.009	inactive: 0.053	inactive: 0.004	inactive: 0.025
UCKL1 (UniProt Q9NWZ5)	inactive: -0.018	inactive: 0.01	inactive: -0.053	inactive: 0.003	inactive: -0.019	inactive: -0.013	inactive: -0.076	inactive: 0.014	inactive: -0.016	inactive: 0.019
URI1 isoform 4 (UniProt O94763)	inactive: -0.023	inactive: -0.008	inactive: 0.044	inactive: -0.079	inactive: -0.112	inactive: 0.179	inactive: 0.029	inactive: 0.029	inactive: 0.023	inactive: 0.131
VAMP8 (UniProt Q9BV40)	inactive: -0.001	inactive: -0.002	inactive: 0.05	inactive: 0.033	inactive: 0.105	inactive: -0.029	inactive: 0.025	inactive: -0.011	inactive: -0.028	inactive: 0.021
UQCRFS1 (UniProt P47985)	inactive: 0.01	inactive: -0.054	inactive: 0.072	inactive: 0.137	inactive: 0.011	inactive: 0.006	inactive: 0.012	inactive: -0.061	inactive: 0.041	inactive: -0.023
VAPA (UniProt Q9P0L0)	inactive: -0.005	inactive: 0.028	inactive: 0.138	inactive: 0.184	inactive: -0.055	inactive: -0.197	inactive: 0.039	inactive: -0.055	inactive: 0.067	inactive: -0.141
USP48 (UniProt Q86UV5)	inactive: -0.05	inactive: 0.037	inactive: 0.13	active: -0.577	inactive: -0.022	inactive: 0.068	inactive: 0.035	inactive: -0.181	inactive: -0.134	inactive: 0.182
UFSP2 (UniProt Q9NUQ7)	inactive: -0.02	inactive: -0.008	inactive: -0.022	inactive: -0.012	inactive: 0.009	inactive: -0.004	inactive: 0.017	inactive: 0.002	inactive: -0.028	inactive: 0.017
UMPS (UniProt P11172)	inactive: -0.014	inactive: -0.019	inactive: -0.012	inactive: -0.001	inactive: -0.026	inactive: -0.058	inactive: -0.023	inactive: 0.027	inactive: 0.003	inactive: -0.004
UROS (UniProt P10746)	inactive: 0.013	inactive: -0.025	inactive: -0.033	inactive: 0.09	inactive: 0.013	inactive: -0.034	inactive: -0.008	inactive: 0.008	inactive: -0.07	inactive: 0.06
USF1 (UniProt P22415)	inactive: -0.049	inactive: -0.013	inactive: -0.031	inactive: -0.03	inactive: 0.061	inactive: 0.075	inactive: 0.047	inactive: 0.03	inactive: -0.06	inactive: 0.02
USP19 isoform 6 (UniProt O94966)	inactive: -0.034	inactive: -0.031	inactive: -0.004	inactive: -0.015	inactive: 0.046	inactive: -0.021	inactive: -0.022	inactive: -0.027	inactive: -0.026	inactive: 0.004
VAV3 isoform 4 (UniProt Q9UKW4)	inactive: -0.167	inactive: -0.057	inactive: -0.217	active: -0.655	inactive: -0.008	inactive: 0.135	inactive: -0.093	inactive: 0.325	inactive: 0.023	inactive: 0.242
USP34 (UniProt Q70CQ2)	inactive: -0.002	inactive: -0.008	inactive: -0.094	inactive: 0.03	inactive: 0.004	inactive: -0.122	inactive: 0.011	inactive: 0.01	inactive: -0.041	inactive: 0.018
USP3 (UniProt Q9Y6I4)	inactive: -0.016	inactive: 0.001	inactive: -0.033	inactive: 0.031	inactive: 0.01	inactive: -0.056	inactive: 0.021	inactive: -0.03	inactive: 0.01	inactive: -0.04
USO1 (UniProt O60763)	inactive: 0.19	inactive: -0.067	inactive: -0.026	inactive: 0.014	inactive: -0.169	inactive: 0.193	inactive: 0.038	inactive: 0.054	inactive: -0.089	inactive: -0.066
UTP3 (UniProt Q9NQZ2)	inactive: 0.002	inactive: -0.031	inactive: -0.094	inactive: -0.008	inactive: 0.031	inactive: -0.007	inactive: -0.027	inactive: 0.066	inactive: -0.061	inactive: 0.029
UTP18 (UniProt Q9Y5J1)	inactive: 0.032	inactive: 0.125	inactive: -0.05	inactive: 0.097	inactive: -0.065	inactive: -0.055	inactive: 0.074	inactive: -0.025	inactive: -0.084	inactive: -0.038
VAMP4 (UniProt O75379)	inactive: 0.036	inactive: 0.02	inactive: 0.024	inactive: -0.064	inactive: 0.044	inactive: 0.014	inactive: 0.01	inactive: 0.062	inactive: -0.02	inactive: 0.05
VDAC3 (UniProt Q9Y277)	inactive: -0.011	inactive: -0.033	inactive: -0.005	inactive: -0.095	inactive: -0.013	inactive: 0.042	inactive: -0.015	inactive: -0.028	inactive: -0.022	inactive: 0.011
USP7 (UniProt Q93009)	inactive: -0.015	inactive: -0.006	inactive: -0.016	inactive: -0.057	inactive: -0.011	inactive: -0.007	inactive: -0.017	inactive: 0.023	inactive: -0.001	inactive: 0.063
VBP1 (UniProt P61758)	inactive: 0.027	inactive: 0.009	inactive: 0.007	inactive: -0.012	inactive: 0.001	inactive: 0.013	inactive: 0.001	inactive: 0.013	inactive: 0.021	inactive: -0.023
UEVLD (UniProt Q8IX04)	inactive: -0.024	inactive: -0.038	inactive: -0.028	inactive: -0.045	inactive: -0.002	inactive: -0.023	inactive: -0.019	inactive: 0.036	inactive: 0.01	inactive: 0.009
USP28 isoform 2 (UniProt Q96RU2)	inactive: 0.013	inactive: -0.06	inactive: -0.043	inactive: -0.029	inactive: 0.051	inactive: -0.023	inactive: 0.01	inactive: 0.002	inactive: -0.029	inactive: 0.059
VDAC1 (UniProt P21796)	inactive: 0.002	inactive: -0.022	inactive: 0.007	inactive: -0.018	inactive: 0.007	inactive: 0.049	inactive: -0.003	inactive: -0.029	inactive: 0.029	inactive: -0.036

Some values from the entries so far:
log2 fold change (crizotinib), VAPA (UniProt Q9P0L0) reads inactive: 0.138
log2 fold change (bafetinib), UPF2 (UniProt Q9HAU5) reads inactive: -0.031
